Patent US20100145057A1, “NOVEL PRODRUGS” (SUN PHARMA ADVANCED RESEARCH COMPANY LTD., priority 2007, published 2010)
At least one read-out could not be matched to a standard name with certainty.

Assays:
[1] = Comparative bioavailability: LC-MS determination of gabapentin in plasma after oral gabapentin or example 5; type: in vivo; conditions: data of Table 1, p.o.
Description: (§1) The prodrugs compounds of the present invention, i.e. the compounds of formula-I release in-vivo the compounds of formula III. Two of the representative compounds of the present invention i.e. compound of example 5 and compound 15, were tested to determine the comparative bioavailability of the drug and the prodrug. The following method was employed for the determination of bioavailability of the test compound of example 5.
Liquid Chromatography Mass Spectrometric Method for the Determination of Gabapentin from Example 5 in Plasma.
Mobile phase: Prepare 2 mM ammonium acetate solution in milliQ water and adjust the pH to 3.0 with formic acid. Mix above buffer solution and acetonitrile in the ratio (30:70 v/v) and filter.
Column: Hypurity C18, 50×2.1 mm, 5μ; Column oven temperature: 40° C.; Flow rate: 0.25 ml/min; Injection volume: 10 μl; Run time: 2.0 min.; Retention time: Example 5: 1.0 min.; Gabapentin: 1.0 min.; Carbamazepine: 1.0 min.;
Mass Parameters: Spray Voltage: 3500 V; Sheath Gas Pressure: 35 ml/min; Capillary Temperature: 380° C.; Mode: Positive; Aux gas pressure: 10 ml/min
For Gabapentin Linearity Range: 200 ng-19600 ng/ml in mobile phase.
For example 5: Linearity Range: 50 ng 5000 ng/ml in mobile phase.
A 100 μl plasma sample and 5 μl of internal standard was taken in a micro centrifuge tube. Vortex for 20-30 sec. The test samples were loaded in preconditioned HLB cartridges. […]

[2] = Comparative bioavailability: baclofen plasma levels after oral baclofen or example 15; type: in vivo; conditions: data of Table 2, p.o.
Description: as §1
Table 1 and Table 2 below provide Dose-concentration data for the representative compounds 5 and compound 15 of the invention, which are prodrugs of gabapentin and baclofen respectively.

| Structure (SMILES) | bioavailability of gabapentin, prodrug compared with gabapentin (in words) [1] | bioavailability of baclofen, prodrug compared with baclofen (in words) [2] |
| --- | --- | --- |
| CCOC(=O)C(C)=NOC(=O)NCC1(CC(=O)O)CCCCC1 [Example 5, N-[(Ethyl oximinopropionate-2-yl)carbonyl]-1-aminomethyl cyclohexaneacetic acid] | higher bioavailability of gabapentin at the higher dose | – |
| CCOC(=O)C(C)=NOC(=O)NCC(CC(=O)O)c1ccc(Cl)cc1 (centres unmarked) [Example 15, N-[(Ethyl oximinopropionate-2-yl)carbonyl]-4-amino-3-(4-chlorophenyl)butanoic acid] | – | higher bioavailability of baclofen |
